## Screening data, single-dose tests

Protein sequences, listed by entry. Tags and fused reporters are not part of them. Residues count along the entry.
UniProt P9WPC5, whole entry: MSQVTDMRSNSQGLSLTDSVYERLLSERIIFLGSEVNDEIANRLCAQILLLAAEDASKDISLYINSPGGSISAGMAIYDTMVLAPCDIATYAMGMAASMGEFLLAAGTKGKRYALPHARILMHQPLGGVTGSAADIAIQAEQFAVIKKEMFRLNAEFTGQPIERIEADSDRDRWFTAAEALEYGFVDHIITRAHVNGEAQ
UniProt P9WPC3, whole entry partner: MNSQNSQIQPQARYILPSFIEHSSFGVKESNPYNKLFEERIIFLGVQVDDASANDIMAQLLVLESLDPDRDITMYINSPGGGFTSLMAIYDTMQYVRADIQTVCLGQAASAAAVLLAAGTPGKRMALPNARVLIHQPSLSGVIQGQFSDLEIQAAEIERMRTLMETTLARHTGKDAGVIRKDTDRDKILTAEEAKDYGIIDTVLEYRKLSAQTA
UniProt I6X8D2, whole entry: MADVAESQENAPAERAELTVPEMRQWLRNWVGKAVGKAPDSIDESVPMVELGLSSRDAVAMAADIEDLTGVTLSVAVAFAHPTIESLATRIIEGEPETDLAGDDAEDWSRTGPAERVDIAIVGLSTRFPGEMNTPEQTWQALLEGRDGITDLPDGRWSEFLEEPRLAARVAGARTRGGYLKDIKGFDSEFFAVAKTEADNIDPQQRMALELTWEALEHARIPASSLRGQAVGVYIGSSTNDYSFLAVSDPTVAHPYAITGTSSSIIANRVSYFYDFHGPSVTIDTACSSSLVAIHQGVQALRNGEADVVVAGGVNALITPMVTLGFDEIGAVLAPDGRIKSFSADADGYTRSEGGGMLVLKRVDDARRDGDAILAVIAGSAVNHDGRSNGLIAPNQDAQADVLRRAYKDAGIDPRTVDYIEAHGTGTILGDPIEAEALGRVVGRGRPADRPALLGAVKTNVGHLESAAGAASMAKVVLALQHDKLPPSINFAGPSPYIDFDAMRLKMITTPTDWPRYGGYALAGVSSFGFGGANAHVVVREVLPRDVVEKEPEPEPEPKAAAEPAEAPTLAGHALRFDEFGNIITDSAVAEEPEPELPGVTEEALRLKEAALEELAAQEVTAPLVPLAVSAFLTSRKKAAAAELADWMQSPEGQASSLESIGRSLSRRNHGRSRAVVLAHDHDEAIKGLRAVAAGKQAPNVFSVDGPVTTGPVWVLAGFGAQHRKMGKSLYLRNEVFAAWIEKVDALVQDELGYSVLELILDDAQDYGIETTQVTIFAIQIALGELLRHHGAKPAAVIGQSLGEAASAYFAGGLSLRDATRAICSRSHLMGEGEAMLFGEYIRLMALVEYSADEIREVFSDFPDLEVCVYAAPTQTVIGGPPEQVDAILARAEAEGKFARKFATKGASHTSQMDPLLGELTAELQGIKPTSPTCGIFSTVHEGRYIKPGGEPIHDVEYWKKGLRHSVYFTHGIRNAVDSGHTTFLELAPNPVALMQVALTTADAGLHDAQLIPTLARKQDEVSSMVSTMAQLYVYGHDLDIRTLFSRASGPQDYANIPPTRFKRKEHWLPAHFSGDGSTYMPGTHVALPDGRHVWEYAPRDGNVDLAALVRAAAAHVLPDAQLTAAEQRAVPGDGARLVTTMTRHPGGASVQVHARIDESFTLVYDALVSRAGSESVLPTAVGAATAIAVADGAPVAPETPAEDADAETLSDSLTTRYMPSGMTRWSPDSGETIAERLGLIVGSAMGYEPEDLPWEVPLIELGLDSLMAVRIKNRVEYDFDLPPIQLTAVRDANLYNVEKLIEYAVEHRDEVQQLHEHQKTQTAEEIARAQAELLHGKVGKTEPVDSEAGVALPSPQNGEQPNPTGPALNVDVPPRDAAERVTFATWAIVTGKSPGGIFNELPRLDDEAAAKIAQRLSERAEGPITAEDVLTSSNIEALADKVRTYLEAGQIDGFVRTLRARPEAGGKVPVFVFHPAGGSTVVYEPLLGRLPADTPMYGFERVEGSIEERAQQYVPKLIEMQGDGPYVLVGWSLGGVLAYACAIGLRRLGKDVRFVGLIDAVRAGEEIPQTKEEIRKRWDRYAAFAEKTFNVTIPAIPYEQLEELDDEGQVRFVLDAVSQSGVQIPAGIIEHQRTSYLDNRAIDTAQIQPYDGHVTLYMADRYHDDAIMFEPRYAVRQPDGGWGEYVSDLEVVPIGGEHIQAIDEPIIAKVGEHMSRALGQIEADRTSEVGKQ
UniProt Q8IDJ8, 1-583: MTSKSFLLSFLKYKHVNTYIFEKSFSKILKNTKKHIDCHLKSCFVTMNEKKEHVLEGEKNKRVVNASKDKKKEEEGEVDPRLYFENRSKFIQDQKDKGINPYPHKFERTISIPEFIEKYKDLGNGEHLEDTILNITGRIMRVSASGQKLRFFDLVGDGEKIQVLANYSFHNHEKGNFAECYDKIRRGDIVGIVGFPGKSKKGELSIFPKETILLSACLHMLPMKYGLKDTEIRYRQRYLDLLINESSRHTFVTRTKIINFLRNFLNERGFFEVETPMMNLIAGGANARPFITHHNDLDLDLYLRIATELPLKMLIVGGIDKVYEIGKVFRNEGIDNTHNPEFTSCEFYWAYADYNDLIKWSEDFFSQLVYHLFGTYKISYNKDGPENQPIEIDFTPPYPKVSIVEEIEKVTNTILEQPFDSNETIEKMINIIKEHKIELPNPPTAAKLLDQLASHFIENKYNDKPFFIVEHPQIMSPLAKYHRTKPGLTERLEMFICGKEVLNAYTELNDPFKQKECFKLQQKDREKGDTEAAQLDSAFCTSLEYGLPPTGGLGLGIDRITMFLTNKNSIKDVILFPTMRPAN

Each number is a percent effect as filed. The controls that fix the scale are not given in the record; negative values are as filed. The compounds are a random part of those screened. Two or more numbers in one place are separate tests of the same structure; such repeats can differ widely. A dash means the value is not listed here; it may have been measured.

ClpP1P2: 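Protease assay of ClpP1P2, read by the AMC dye that it sets free. Target: ClpP1P2, Mycobacterium tuberculosis (UniProt P9WPC5 and UniProt P9WPC3). Compounds at 50 µM. Direction is inferred from only a few compounds that gave an IC50; most scored high, so higher reads as stronger inhibition. Most other retested compounds had strongly negative values. About 69,000 compounds were tested under these conditions; 0.015% (about 10) showed 50% or more at least once.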
Leishmania in macrophages: 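Cell assay of Leishmania donovani living inside macrophages; the read-out is not stated. Concentration: 30 µM. Direction is inferred from retests: higher values go with stronger inhibition. Of about 69,000 compounds tested this way, about 1,000 (1.5%) reached 50% or more in at least one test.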
Pks13 thioesterase: 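Polyketide synthase Pks13, Mycobacterium tuberculosis (UniProt I6X8D2). Enzyme assay of the thioesterase domain of polyketide synthase 13; the read-out is not stated. Tested at 30 µM. The record gives no direction; the compounds picked for IC50 retests had high values, so higher reads as stronger inhibition. Size under these conditions: about 67,000 compounds, about 300 of them at 50% or above in at least one test.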
PfKRS1: 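Lysine-tRNA ligase, Plasmodium falciparum 3D7 (UniProt Q8IDJ8). Enzyme assay of the cytosolic lysyl-tRNA synthetase in 384-well plates, read by luminescence. Tested at 30 µM. Higher reads as stronger inhibition, judged from the few compounds that gave an IC50. Size under these conditions: about 69,000 compounds, about 49 of them at 50% or above in at least one test.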
Toxoplasma: 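Assay of Toxoplasma gondii numbers, read through their beta-galactosidase reporter with a colour substrate. Concentration: 10 µM. Higher reads as fewer parasites (inferred from which compounds were picked for retests). Of about 67,000 compounds tested this way, about 260 (0.38%) reached 50% or more in at least one test.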

Compound | ClpP1P2 | Leishmania in macrophages | Pks13 thioesterase | PfKRS1 | Toxoplasma
Cc1cccc(CN2CCC3(CCCN(C(=O)c4ccoc4)C3)C2=O)n1.O=C(O)C(F)(F)F (stereo not shown) | - | 4.194 & 6.548 | - | - | 1.129
O=C(NC1CC1)N1CCCC2(CCCCN2)C1 (stereo not shown) | -2.375 | - | -24.82 | 2.707 | -
O=C(C1CCCCC1)N1CCC2(CC1)OCCO2 | 9.139 | -14.75 | -5.791 | 7.222 | 17.83
CCOc1ccc(N(CCC#N)C(=O)c2ccc(SC)nc2)cc1 | -10.17 | 21.15 | -25.53 | 7.852 | 1.546
CC(C1CC1)N(C(=O)CNc1ccc(C#N)cc1)C1CC1 (stereo not shown) | -7.219 | 26.89 | -36.8 | 10.58 | 5.945
Cc1ccc(NC2CCN(C(=O)Cc3c(C)noc3C)CC2)nn1 | -43.46 | 16.63 | -19.94 | 2.255 | -3.051
CCCOc1ccc2c(c1)OCC(C(=O)NC(C)Cn1ccnc1)=C2 (stereo not shown) | 5.237 | 3.408 | -73.35 | 6.029 | 3.846
Cc1cccc(CN2CCC3(CC2)COC(COCC2CC2)C3)n1 (stereo not shown) | -2.326 | 12.77 | -6.478 | 2.38 | -28.2
O=C(O)C(F)(F)F.O=C1N(CC2CC2)CCC12CCN(CC1CC1)CC2 | - | -4.937 & 12.94 | - | - | 0.5039
CCC(NC(=O)C1CCN(S(C)(=O)=O)CC1)c1ccc(C)c(C)c1 (stereo not shown) | -12.33 | -22.03 | 13.23 | 3.088 | 8.41
COc1cnc(N2CCC(c3ncc[nH]3)CC2)nc1 | 0.6663 | 2.848 | 4.843 | -3.512 | 0.9798
COc1ccc(Cl)cc1S(=O)(=O)N(C)CC(=O)Nc1cccnc1 | -17 | 36.74 | 2.01 | 0.6226 | 18.5
O=C(O)c1cc(-c2ccncc2)cc(S(=O)(=O)N2CCCCCC2)c1 | -12.34 | 28.92 | -11.33 | 7.197 | -8.308
COc1ccc(F)cc1C(=O)N1CC(c2ccncc2)C1 | 5.138 | 18.57 | -7.466 | 6.972 | 3.864
CCN1CCC2(CC1)CC(NC(=O)NC)c1cc(C)ccc12.O=C(O)C(F)(F)F (stereo not shown) | - | 28.81 | - | - | 0.3205
COc1ccc(C(=O)N(C)Cc2cc(C)on2)c(F)c1 | -9.404 | 14.04 | 5.311 | 6.143 | 2.245
CN1C(=O)C2(CCN(Cc3nccn3C)CC2)c2ccccc21 | -1.51 | - | -12.61 | 3.464 | -
Cc1ccc(-c2nc(CN3CC(n4nc(C)cc4C)C3)no2)cc1 | -13.32 | 17.6 | 0.2161 | 1.58 | 11.88
[H][C@]12CCN(C(=O)N3CCOCC3)C[C@@]1([H])OCCN(S(C)(=O)=O)C2 | - | 41.23 | - | - | -8.128
CN(C)CCN(Cc1cccc(C(F)(F)F)c1)C(=O)c1cc[nH]n1 | -17.15 | 1.352 | -9.428 | 0.05863 | -1.57
OCCNc1nccc(-c2c[nH]nc2-c2ccncc2)n1 | 8.147 | 5.623 & -0.8981 | 4.058 | 3.367 | -1.451
COCCNC(=O)N1CCC(NC(C)C)CC1 | 15.21 | 14.84 | -21.88 | 0.5153 | -5.113
CC(C)(CC(=O)Nc1cccc(Oc2ccccn2)c1)C(=O)O | -7.665 | -1.715 | -4.506 | 3.66 | 5.698
Cc1ccc(CC(=O)N2Cc3nccn3CC(CN(C)C)C2)cc1 (stereo not shown) | 5.119 | - | -7.362 | 2.344 | -
Cc1nn(C)c2c(N3CCN(C(=O)C4CCCO4)CC3)ncnc12 (stereo not shown) | -3.361 | -36.73 | -0.2904 | 0.02413 | -57.58
CCCc1cc(CN(C)C2CC(C)(C)NC(C)(C)C2)n[nH]1 | -26.7 | 22.17 | - | 5.453 | -1.592
CCn1cc(NC(=O)C(C)n2ncc(Cl)c2C)c(C(=O)OC)n1 (stereo not shown) | -9.207 | 15.57 | -14.72 | 7.743 | 19.29
COc1cc(F)c(S(=O)(=O)Nc2cnc(O)cc2C)cc1OC | -0.8347 | -18.58 | 1.611 | 22.04 | -13.63
Cc1cc(CN2CCCC2Cn2cncn2)no1 (stereo not shown) | 9.365 | 0.792 | 13.45 | 3.095 | -3.835
Cc1cccc(N2N=C(C(=O)NC(C)CCc3ccco3)CCC2=O)c1 (stereo not shown) | 10.57 | -22.25 | -60.34 | 2.663 | 32.37
COc1ccc(C2CCCN2Cc2nc3c(cnn3C)c(=O)[nH]2)cc1 (stereo not shown) | -0.7908 | 33.95 | -5.813 | -1.516 | -5.648
CCn1cnnc1C1CCN(C(=O)c2c(C)oc(C)c2C)CC1 | -12.51 | 16.34 | -7.019 | 0.5931 | 4.923
FC(F)(F)c1ccc2nc([C@H]3CCN(C4CCOCC4)C3)[nH]c2c1 | -6.72 | 14.92 | -29.57 | 3.559 | 8.777
Cc1cccc(N2CCN(C(=O)NC(C)c3nncn3C)CC2)c1C (stereo not shown) | -14.4 | 11.49 | -0.7615 | 1.268 | 2.193
O=C(CO)N1CCOC2(CCCN(c3ncc(F)cn3)C2)C1 (stereo not shown) | -0.5554 | - | -36.94 | -0.5143 | -
COc1ccc(-c2nnc(CN3CCCC3Cn3cncn3)o2)cc1 (stereo not shown) | 2.419 | 6.773 | -16.41 | -1.923 | 8.901
Cc1cc(C)c2c(N(C)CC3COCCO3)ncnc2n1 (stereo not shown) | -12.19 | 25.7 | -13.96 | 0.2508 | 18.99
CCc1noc(CN2CCN(Cc3cccs3)CC2)n1 | 2.849 | 24.33 | -14.2 | 2.019 | -3.525
Cc1nc(C)c(Cn2ccnc2-c2cc(CN(C)C)cs2)s1 | 0.2012 | 18.57 | 2.897 | 4.251 | 4.543
COCCn1ccnc1C1CCCN(c2ncnc3c(C)csc23)C1 (stereo not shown) | -8.753 | -12.92 | -9.129 | -1.615 | 3.558
O=C1NC2(CCN(Cc3cccnc3)CC2)CC1c1ccncc1 (stereo not shown) | -5.408 | 9.164 | -12.62 | 3.586 | -7.873
CC(C)CN1CCC(NC(=O)c2ccc(F)cc2F)CC1 | -21.36 | 25.49 | -15.78 | 4.224 | -2.38
Cc1cccc(CN2C[C@H]3CCC[C@@]3(COCc3csc(C)n3)C2)n1 | -4.503 | - | -31.49 | 3.171 | -
COCCN(C)C(C(=O)O)c1ccc(C)c(C)c1 (stereo not shown) | -2.906 | 17.85 | -13.51 | 6.056 | 5.917

4 of the entries, repeated:

Compound	ClpP1P2	Leishmania in macrophages	Pks13 thioesterase	PfKRS1	Toxoplasma
Cc1nn(C)c2c(N3CCN(C(=O)C4CCCO4)CC3)ncnc12 (stereo not shown)	-3.361	-36.73	-0.2904	0.02413	-57.58
Cc1cccc(CN2CCC3(CC2)COC(COCC2CC2)C3)n1 (stereo not shown)	-2.326	12.77	-6.478	2.38	-28.2
CN1C(=O)C2(CCN(Cc3nccn3C)CC2)c2ccccc21	-1.51	-	-12.61	3.464	-
COc1ccc(C(=O)N(C)Cc2cc(C)on2)c(F)c1	-9.404	14.04	5.311	6.143	2.245

Measurements from “University of Dundee, Small-Polar-MMV Screening Library” (2021), ChEMBL document CHEMBL3988442.